Data taken from US20260193623.
Construct, isoform or probe ends are uncertain for at least one entry.

Tests used:
[1] = tested on: MG140-8c5 (C-terminal endonuclease trim); assay: activity assay; conditions: purified recombinant protein
[2] = tested on: MG140-8c5 (C-terminal endonuclease trim); assay: FP; conditions: strand displacement, dNTP dependent; purified recombinant protein; label: 5'-FAM displacement oligo; DNA:RNA hybrid

Question: “GACCGGAACTCTTTGGAATGGGAATAAGATCATTGATGAAAGACTTATAAATCCTGATGGGAGTCTCCTCTTTAGAGTGACAATTAATGGGGTAACAGGATGGAGACTCTGTGAGCGGATCTTGGCTTAGCCCAAACCCAAACCCAAACC / CCCCTCGAGGTCGACGGTATCGATAAGCTTGATATCGAATTCCTGCAGCCCGGGGGATCCACTAGTTCTAGAGCGGCCGCCACCGCGGTGGAGCTCCAGCTTTTGTTCCCTTTAGTGAGGGTTAATTTCGAGCTTGGCGTAATCATGGTCTT [primed Donor RNA plus Acceptor RNA (template switching)]” was tested. Which “activity on this sequence” value ([1]; template switching) did it give?
Answer: active

Question: How did the “activity on this sequence” value [2] turn out when “GGCAAACCGCCTCTCCCCGCGCGTTGGCCGATTCATTAATGCAGCTGGCACGACAGGTTTCCCGACTGGAAAGGAGACCCGGGCAGTGAGCGCAACGGGTCTCCAATTTAAGCCAGCCCCGACACCCGCCAACACCCGCTGACGCGCCCTGACGGGCTTGTCTGCTCCCGGCATCCGCTTACAGACAAGCTGTGACCGTCTC / GAGACGGTCACAGCTTGTCTG / CGCGCGGGGAGAGGC [RNA template with priming and displacement oligos]” was run?
Answer: active

Question: How did the “activity on this sequence” value ([1]; all U replaced by N1-methylpseudouridine in RNA, retains appreciable activity on m1-pseudouridine template, label: 5'-FAM primer, DNA:RNA hybrid) turn out when “GGCAAACCGCCTCTCCCCGCGCGTTGGCCGATTCATTAATGCAGCTGGCACGACAGGTTTCCCGACTGGAAAGGAGACCCGGGCAGTGAGCGCAACGGGTCTCCAATTTAAGCCAGCCCCGACACCCGCCAACACCCGCTGACGCGCCCTGACGGGCTTGTCTGCTCCCGGCATCCGCTTACAGACAAGCTGTGACCGTCTC / GAGACGGTCACAGCTTGTCTG [202-nt m1-pseudouridine RNA template annealed to DNA primer]” was run?
Answer: active

Question: For “TAGAAGTCCTCTTGGCGCCGAAGGATGGCGTGAAGCTCCTCAAGATGGATCTGGTGTGGAATGCTCCCATTGTCGAAAGTGCGCTGCTTCCGCAGCAGAT / ATCTGCTGCGGAAGCAGC / CGGCGCCAAGAGGACTTCTA [100-nt ssDNA template with priming and quencher oligos]”, which “activity on this sequence” value ([1]; second-strand synthesis, fluorescence unquenching, label: 5'-FAM template, 3'-quencher oligo, folded or branched DNA) is on record?
Answer: active

Question: Which “activity on this sequence” value ([1]; active on unprimed RNA, label: 5'-FAM template, 3'-quencher oligo, DNA:RNA hybrid) does the source give for “TAGAAGTCCTCTTGGCGCCGAAGGATGGCGTGAAGCTCCTCAAGATGGATCTGGTGTGGAATGCTCCCATTGTCGAAAGTGCGCTGCTTCCGCAGCAGAT / CGGCGCCAAGAGGACTTCTA [unprimed 100-nt RNA template with quencher oligo]” here?
Answer: active
